Earlier results in patent US20210086176A1, “Analyte Detection method” (The Board of Trustees of the Leland Stanford Junior …, priority 2017, published 2021).

Conditions: in vivo; cited from earlier work

SMILES: CN1CC[C@]23c4c5ccc(O)c4O[C@H]2[C@@H](O)C=C[C@H]3[C@H]1C5 [morphine]
- minimally effective plasma analgesic concentration (MEAC): 8 ng/mL
